Measured values reported in PubChem BioAssay AID540276 (National Center for Advancing Translational Sciences (NCATS), 2011).
In all, about 300,000 compounds went through this assay and about 5,400 (1.8%) were called active. The inconclusive results got no clear call from the source; some entries with a clear call stand among them for comparison. The call rests on the fitted dose curve; tested in HEK293 cells. Potencies beside an inconclusive call are fits to weak or partial responses and may not hold up.

Experiment: qHTS for inhibitors of binding or entry into cells for Marburg Virus
Details: Marburg virus pseudotyped entry inhibition, cell reporter; series mostly up to 37.8 µM
Potency means the concentration at half of the fitted maximal effect.

| Compound | Potency |
| --- | --- |
| O=C(Nc1ccc2c(c1)OCCO2)c1cnc2n(c1=O)CCS2 | inconclusive: 0.731 µM [activator, partial curve, poor fit] |
| Cn1c(=S)[nH]c(=O)c2ncc(=O)[nH]c21 | inconclusive: 12.6 µM [activator, single point] |
| N/C(=N\OC(=O)c1cccs1)c1cccc(Br)c1 | inconclusive: 3.98 µM [activator, full curve, poor fit] |
| Cc1cc(C)cc(-n2nnc(C(=O)NCc3ccco3)c2N)c1 | inactive |
| CCCCN(C)CCNC(=O)C1CCN(c2nc3ccc(CC)cc3s2)CC1 | inconclusive: 2.82 µM [activator, single point] |
| Cc1ccc2nc(SCC(=O)Nc3ccc(F)c([N+](=O)[O-])c3)[nH]c2c1 | inconclusive: 6.51 µM [inhibitor, full curve, poor fit] |
| CN1C(=O)N(C)C2(c3ccccc3)Nn3c(s/c(=C/c4ccco4)c3=O)=NC12c1ccccc1 (stereo not given) | inconclusive: 20.6 µM [inhibitor, single point] |
| Cn1c(=O)c2sccc2n(Cc2ccccc2)c1=O | inactive |
| CCCCn1c(N)c(N(Cc2ccccc2OC)C(=O)c2ccc(N3CCCC3=O)cc2)c(=O)[nH]c1=O | inconclusive: 0.447 µM [inhibitor, partial curve, poor fit] |
| COc1ccc(CN2C=C3C(=O)C(C)(OC(=O)C4CCCC4)C(=O)C=C3C=C2c2ccsc2)cc1 (stereo not given) | inconclusive: 0.0067 µM [activator, full curve, poor fit] |
| COC(=O)c1sc(S(=O)(=O)Oc2ccccc2NC(C)=O)c(C(=O)OC)c1C | inactive |
| CCC(c1nnnn1CCc1ccccc1)N(Cc1ccco1)Cc1cc2cc(C)cc(C)c2[nH]c1=O (stereo not given) | inconclusive: 17.8 µM [inhibitor, single point] |
| CC(=O)c1ccc(OCc2cccc(C(F)(F)F)c2)cc1O | inactive |
| CC(=O)N1CCN(c2ccc(NC(=O)c3ccc([N+](=O)[O-])o3)cc2Cl)CC1 | inconclusive: 22.4 µM [inhibitor, single point] |
| COC(=O)CSc1nnc(-c2ccccn2)n1Cc1ccco1 | inconclusive: 3.16 µM [activator, partial curve, poor fit] |
| CN1CCN(C2=C(NS(=O)(=O)c3cccs3)C(=O)c3ccccc3C2=O)CC1 | inconclusive: 25.1 µM [inhibitor, single point] |
| COc1ccc(OC)c(CNc2ncnc3onc(-c4ccc(Cl)cc4)c23)c1 | inconclusive: 0.891 µM [inhibitor, single point] |
| O=C(NCC1CCCO1)C(=O)N/N=C/c1cc(Cl)ccc1O (stereo not given) | inconclusive: 2.82 µM [inhibitor, full curve, poor fit] |
| O=C(Nc1ccc(-n2cnnn2)cc1)C1CCCN1C(=O)NC1CCCCC1 (stereo not given) | inconclusive: 0.794 µM [inhibitor, single point] |
| O=C(N/N=C/c1c(O)n(-c2ccc(Cl)cn2)c(=O)c2ccccc12)C1CC1 | inconclusive: 35.5 µM [inhibitor, single point] |
| CCC(C(=O)NCCCc1ccccc1)c1ccccc1 (stereo not given) | inconclusive: 0.112 µM [inhibitor, full curve, poor fit] |
| C/C(=N\NC(=O)C1CC1)c1cccnc1 | inactive |
| Cc1c(C(=O)NC2CC(=O)N(c3ccc4c(c3)OCCO4)C2)cccc1[N+](=O)[O-] (stereo not given) | inactive |

A few values from the entries so far.
O=C(Nc1ccc2c(c1)OCCO2)c1cnc2n(c1=O)CCS2 – Potency: inconclusive: 0.731 µM [activator, partial curve, poor fit]
COC(=O)c1sc(S(=O)(=O)Oc2ccccc2NC(C)=O)c(C(=O)OC)c1C – Potency: inactive

Later entries:

| Compound | Potency |
| --- | --- |
| COc1ccc(NC(=O)c2ccc(NC(=O)CSc3nccc(=O)[nH]3)cc2)cc1 | inconclusive: 6.31 µM [activator, single point] |
| C/C(=N\Nc1nc2ccccc2s1)c1ccc(Br)s1 | inconclusive: 25.1 µM [inhibitor, single point] |
| CSc1ccc(CN2CCC(C(=O)NCc3ccc(C)cc3)CC2)cc1 | active: 16.4 µM |
| CCC1(O)CC(c2ccccc2)=NN1C(=O)c1ccccc1F (stereo not given) | inconclusive: 1.26 µM [inhibitor, single point] |
| Cc1cccc(CSc2nc3[nH]ncc3c(=O)[nH]2)c1 | inconclusive: 1.78 µM [activator, partial curve, poor fit] |
| Cc1ccc(CSCC(=O)NCc2ccco2)cc1 | inactive |
| COc1ccc(CSC(=N)N)cc1[N+](=O)[O-] | inconclusive: 35.5 µM [inhibitor, single point] |
| COc1cccc(-c2nn(-c3ccccc3)cc2CN(C)Cc2ccno2)c1 | inactive |
| Cc1ccccc1-n1nc(CO)c(C(=O)NCCc2ccccc2)n1 | inactive |
| Cc1ccc(/C=N/N2CCN(Cc3ccccc3)CC2)s1 | inactive |
| CCCOc1ccc(N2C(=O)CC(N3CCN(c4ccc([N+](=O)[O-])cc4)CC3)C2=O)cc1 (stereo not given) | inactive |
| C[C@H]1CC[C@H]2C(=O)NC[C@H](O)CN2[C@H]1c1ccc(Br)cc1 | inactive |
| Cc1ccc(Nc2nc3c(c(=O)[nH]2)CCCC3)cc1 | inactive |
| CC(=O)Nc1ccc(N/C=C/C(=O)c2ccc(C)o2)cc1 | inconclusive: 6.51 µM [activator, single point] |
| Cc1cc[n+](CC(=O)c2ccccc2)c2ccccc12 | inconclusive: 12.6 µM [inhibitor, single point] |
| O=C(Cc1ccccc1)NNc1c2ccccc2nc2ccccc12 | inconclusive: 1.41 µM [inhibitor, partial curve, poor fit] |
| CCn1c(=NC(=O)CS(=O)(=O)c2ccc(C)cc2)sc2cccc(OC)c21 | inconclusive: 35.5 µM [inhibitor, single point] |
| CCn1nc(C(=O)OCC(=O)Nc2nc(-c3ccc(OC)cc3)cs2)c2ccccc2c1=O | inconclusive: 6.51 µM [activator, single point] |
| C=C(C)c1cccc(C(C)(C)NC(=O)NCc2ccc(OC)c(OC)c2)c1 | inconclusive: 0.58 µM [inhibitor, full curve, poor fit] |
| C1CCC2(CC1)C1=C(CCCC1)Nc1nnnn12 | inactive |
| CCc1nnc(NC=C2C(=O)OC(C)(C)OC2=O)s1 | inactive |
| Cc1ccc(NC(=S)NNC(=O)c2c([N+](=O)[O-])c(C)nn2C)cc1 | inconclusive: 0.366 µM [inhibitor, partial curve, poor fit] |
